{"sequences": {"note": "Protein sequences, listed by entry. Tags and fused reporters are not part of them.", "UniProt Q9UKV8": "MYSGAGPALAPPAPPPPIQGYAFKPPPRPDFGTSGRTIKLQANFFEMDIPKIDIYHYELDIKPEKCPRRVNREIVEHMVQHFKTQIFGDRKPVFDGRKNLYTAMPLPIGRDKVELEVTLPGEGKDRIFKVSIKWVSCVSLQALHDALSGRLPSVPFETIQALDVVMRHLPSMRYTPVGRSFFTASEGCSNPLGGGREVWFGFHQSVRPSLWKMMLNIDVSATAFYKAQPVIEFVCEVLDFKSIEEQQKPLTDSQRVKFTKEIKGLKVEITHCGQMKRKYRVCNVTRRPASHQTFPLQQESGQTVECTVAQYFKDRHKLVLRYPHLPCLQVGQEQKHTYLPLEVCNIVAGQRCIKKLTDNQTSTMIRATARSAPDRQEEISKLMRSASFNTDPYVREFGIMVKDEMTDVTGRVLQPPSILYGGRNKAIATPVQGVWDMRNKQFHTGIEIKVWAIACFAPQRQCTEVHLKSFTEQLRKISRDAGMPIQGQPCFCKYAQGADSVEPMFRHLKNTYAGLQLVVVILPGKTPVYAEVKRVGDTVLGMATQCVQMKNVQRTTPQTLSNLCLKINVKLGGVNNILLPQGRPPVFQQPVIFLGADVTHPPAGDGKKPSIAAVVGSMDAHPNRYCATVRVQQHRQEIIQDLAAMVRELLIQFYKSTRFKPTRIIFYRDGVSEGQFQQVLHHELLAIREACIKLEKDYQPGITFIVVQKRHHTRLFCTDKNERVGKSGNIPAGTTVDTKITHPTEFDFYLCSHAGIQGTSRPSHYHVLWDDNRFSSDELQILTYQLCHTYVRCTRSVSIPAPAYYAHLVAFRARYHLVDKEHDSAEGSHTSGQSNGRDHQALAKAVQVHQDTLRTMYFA"}, "source": "paper PMC8947033", "target": "FLAG-hAGO2 (human Argonaute2) (human) (UniProt Q9UKV8)", "assay": "affinity purification with mass spectrometry; anti-FLAG M2 agarose IP from lysates of SH-SY5Y cells stably expressing FLAG-hAGO2 or FLAG vector (0.5% NP40, 150 mM KCl lysis buffer, 4 h at 4 °C); elution with FLAG peptide; SDS-PAGE, Coomassie bands excised and identified by LC-MS/MS", "note": "Results are given in words; binding and its absence hold for the method and conditions named. In cells and extracts the contact can be indirect. Here binding means that the protein was enriched with, or labelled near, the bait; the list need not be complete.", "data": [{"binder": "FKBP5 (protein, UniProt Q13451 1-457) MTTDEGAKNNEESPTATVAEQGEDITSKKDRGVLKIVKRVGNGEETPMIGDKVYVHYKGKLSNGKKFDSSHDRNEPFVFSLGKGQVIKAWDIGVATMKKGEICHLLCKPEYAYGSAGSLPKIPSNATLFFEIELLDFKGEDLFEDGGIIRRTKRKGEGYSNPNEGATVEIHLEGRCGGRMFDCRDVAFTVGEGEDHDIPIGIDKALEKMQREEQCILYLGPRYGFGEAGKPKFGIEPNAELIYEVTLKSFEKAKESWEMDTKEKLEQAAIVKEKGTVYFKGGKYMQAVIQYGKIVSWLEMEYGLSEKESKASESFLLAAFLNLAMCYLKLREYTKAVECCDKALGLDSANEKGLYRRGEAQLLMNEFESAKGDFEKVLEVNPQNKAARLQISMCQKKAKEHNERDRRIYANMFKKFAEQDAKEEANKAMGKKTSEGVTNEKGTDSQAMEEEKPEGHV", "values": [{"measurement": "binding", "result": "binds"}]}]}
